Results are given in words; binding and its absence hold for the method and conditions named. Some binding calls cover weakened binding; strength is not graded here. Each block holds one molecule with its values, some of them ahead of it.
Key:
Assay in all cases: SDS-resistant oligomer detection by SDS-PAGE
[1] = biological target: NPM1/nucleophosmin, wild type (UniProt P06748)
[2] = biological target: NPM1(1–259) (UniProt P06748)
[3] = biological target: NPM1-236A (UniProt P06748)
[4] = biological target: NPM1-234567A (UniProt P06748)

binding [1]: binds weakly
Molecule: NPM1/nucleophosmin, wild type (from UniProt P06748 1-294)

binding [2]: binds
Molecule: NPM1(1–259) (from UniProt P06748 1-259) (domain or fragment)

binding [3]: binds weakly
B1: NPM1-236A (natural protein, UniProt P06748 1-294, looked up)
chain: MAASMAMDMSPLRPQNYLFGCELKADKDYHFKVDNDENEHQLSLRTVSLGAGAKDELHIVEAEAMNYEGSPIKVTLATLKMSVQPTVSLGGFEITPPVVLRLKCGSGPVHISGQHLVAVEEDAESEDEEEEDVKLLSISGKRSAPGGGSKVPQKKVKLAADEDDDDDDEEDDDEDDDDDDFDDEEAEEKAPVKKSIRDTPAKNAQKSNQNGKDSKPSSTPRSKGQESFKKQEKTPKTPKGPSSVEDIKAKMQASIEKGGSLPKVEAKFINYVKNCFRMTDQEAIQDLWQWRKSL

binding [4]: binds weakly
B2: NPM1-234567A (natural protein, UniProt P06748 1-294, looked up)
chain: MAAAAAADMSPLRPQNYLFGCELKADKDYHFKVDNDENEHQLSLRTVSLGAGAKDELHIVEAEAMNYEGSPIKVTLATLKMSVQPTVSLGGFEITPPVVLRLKCGSGPVHISGQHLVAVEEDAESEDEEEEDVKLLSISGKRSAPGGGSKVPQKKVKLAADEDDDDDDEEDDDEDDDDDDFDDEEAEEKAPVKKSIRDTPAKNAQKSNQNGKDSKPSSTPRSKGQESFKKQEKTPKTPKGPSSVEDIKAKMQASIEKGGSLPKVEAKFINYVKNCFRMTDQEAIQDLWQWRKSL
